Assay results: patent publication US20080090900A1, “ANTIBIOTIC BUSHRIN” (University of Karachi, priority 2006, published 2008)
At least one structure is not confirmed: it was looked up by name or label, or the drawing left a doubt.

Tested on: Staphylococcus aureus (ATCC33591)
Assay: Time kill experiment
Settings: at two and four times the MIC

## CN(C)[C@@H]1C(O)=C(C(N)=O)C(=O)[C@@]2(O)C(O)=C3C(=O)c4c(O)cccc4[C@@](C)(O)[C@H]3C[C@@H]12 [tetracycline, reference compound]
  course of viable bacterial cell count: decreased gradually
